Laboratory results: paper PMC12446771
These are yes or no findings as the source states them, for the method shown. In cells and extracts the contact can be indirect. These calls come from enrichment with a bait or labelling near it, and not all partners need be listed. Values belong to the binder of their own block, whether it stands above or below them.

Protein sequences, listed by entry. Tags and fused reporters are not part of them.
UniProt O95622: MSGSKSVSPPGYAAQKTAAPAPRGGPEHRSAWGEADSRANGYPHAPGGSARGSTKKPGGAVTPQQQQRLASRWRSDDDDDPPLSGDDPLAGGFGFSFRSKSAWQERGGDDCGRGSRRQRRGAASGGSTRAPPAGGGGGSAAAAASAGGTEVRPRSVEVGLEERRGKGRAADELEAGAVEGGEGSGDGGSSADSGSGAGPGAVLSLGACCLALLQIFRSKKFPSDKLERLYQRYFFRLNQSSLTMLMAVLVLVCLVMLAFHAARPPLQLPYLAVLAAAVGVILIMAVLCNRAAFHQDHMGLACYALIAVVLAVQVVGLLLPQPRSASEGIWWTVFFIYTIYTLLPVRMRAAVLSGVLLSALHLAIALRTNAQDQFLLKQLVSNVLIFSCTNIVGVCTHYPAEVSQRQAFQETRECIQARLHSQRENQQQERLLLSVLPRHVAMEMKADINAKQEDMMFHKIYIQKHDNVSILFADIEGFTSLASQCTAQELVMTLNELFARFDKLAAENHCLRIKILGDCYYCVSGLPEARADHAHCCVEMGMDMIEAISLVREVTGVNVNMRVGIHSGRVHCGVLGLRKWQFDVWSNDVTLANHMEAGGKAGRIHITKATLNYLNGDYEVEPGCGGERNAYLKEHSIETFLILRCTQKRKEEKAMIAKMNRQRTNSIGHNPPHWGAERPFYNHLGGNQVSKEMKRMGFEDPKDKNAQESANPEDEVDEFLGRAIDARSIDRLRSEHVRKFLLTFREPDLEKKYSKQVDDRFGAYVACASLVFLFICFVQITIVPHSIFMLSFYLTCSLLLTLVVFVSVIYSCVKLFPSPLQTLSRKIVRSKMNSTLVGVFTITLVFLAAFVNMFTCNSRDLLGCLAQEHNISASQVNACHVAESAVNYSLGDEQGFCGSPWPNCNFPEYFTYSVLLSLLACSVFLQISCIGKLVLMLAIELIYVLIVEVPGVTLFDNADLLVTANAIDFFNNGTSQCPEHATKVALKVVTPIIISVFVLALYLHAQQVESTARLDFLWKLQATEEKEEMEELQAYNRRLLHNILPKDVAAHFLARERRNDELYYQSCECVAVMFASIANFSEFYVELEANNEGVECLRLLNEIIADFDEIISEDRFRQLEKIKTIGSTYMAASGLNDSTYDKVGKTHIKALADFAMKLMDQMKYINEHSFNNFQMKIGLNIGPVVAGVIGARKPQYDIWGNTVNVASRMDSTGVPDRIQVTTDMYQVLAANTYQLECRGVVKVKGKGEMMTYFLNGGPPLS
UniProt O43306: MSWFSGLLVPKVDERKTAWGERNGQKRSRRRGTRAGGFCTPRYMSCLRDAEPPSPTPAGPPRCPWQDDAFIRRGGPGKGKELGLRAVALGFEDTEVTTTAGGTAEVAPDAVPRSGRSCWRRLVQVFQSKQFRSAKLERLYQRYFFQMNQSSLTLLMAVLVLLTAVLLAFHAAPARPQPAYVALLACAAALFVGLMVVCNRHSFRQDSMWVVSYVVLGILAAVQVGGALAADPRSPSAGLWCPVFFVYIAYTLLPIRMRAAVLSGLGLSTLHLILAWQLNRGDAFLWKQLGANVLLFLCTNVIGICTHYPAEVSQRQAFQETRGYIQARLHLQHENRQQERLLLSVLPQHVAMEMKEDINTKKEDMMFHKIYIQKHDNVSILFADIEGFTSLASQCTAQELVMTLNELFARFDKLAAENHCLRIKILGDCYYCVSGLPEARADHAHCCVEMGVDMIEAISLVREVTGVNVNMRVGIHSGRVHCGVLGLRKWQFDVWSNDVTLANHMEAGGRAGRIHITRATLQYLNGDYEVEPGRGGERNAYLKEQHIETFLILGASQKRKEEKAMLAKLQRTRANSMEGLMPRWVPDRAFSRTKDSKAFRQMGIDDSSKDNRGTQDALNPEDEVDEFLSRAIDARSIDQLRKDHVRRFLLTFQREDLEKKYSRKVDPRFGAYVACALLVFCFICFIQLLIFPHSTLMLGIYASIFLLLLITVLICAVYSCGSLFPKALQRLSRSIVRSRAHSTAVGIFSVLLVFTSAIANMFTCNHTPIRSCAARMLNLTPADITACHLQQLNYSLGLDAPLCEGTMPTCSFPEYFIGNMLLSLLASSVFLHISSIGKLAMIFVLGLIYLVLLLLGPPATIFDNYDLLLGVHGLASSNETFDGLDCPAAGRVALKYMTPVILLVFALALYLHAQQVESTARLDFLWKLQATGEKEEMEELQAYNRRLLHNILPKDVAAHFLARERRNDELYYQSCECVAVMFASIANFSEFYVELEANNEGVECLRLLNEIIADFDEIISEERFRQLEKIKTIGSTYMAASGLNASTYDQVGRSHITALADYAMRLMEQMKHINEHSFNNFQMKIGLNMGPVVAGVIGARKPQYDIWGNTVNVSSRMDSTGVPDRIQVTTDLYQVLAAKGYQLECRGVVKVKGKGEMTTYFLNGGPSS

Legend:
[1] = molecular target: AC5-miniTurbo-FLAG fusion protein (human adenylyl cyclase 5) (human) (UniProt O95622); test: proximity labelling; BioID: AC-miniTurbo-FLAG baits virally expressed in primary neonatal rat cardiomyocytes, vehicle or 48 h norepinephrine, 50 μM biotin 3 h, RIPA lysis, streptavidin pull-down, LC-MS/MS, SAINT score ≥0.7 against GFP-mT and uninfected controls
[2] = molecular target: AC6-miniTurbo-FLAG fusion protein (human adenylyl cyclase 6) (human) (UniProt O43306); test: as above

binding [1]: binds
B1: RASA3 (protein, UniProt Q9QYJ2 1-834)
chain: MAVEEEGLRVFQSVRIKIGEAKNLPSYPGPNKMRDCYCTVNLDQEEVFRTKIVEKSLCPFYGEDFYCEIPRSFRHLSFYIFDRDVFRRDSIIGKVAIQKEDLQRYHNRDTWFQLQHVDADSEVQGKVHLELRLSEVITDTGVVCHKLAARIFECQGLPIVNGQCDPYATVTLAGPFRSEAKKTKVKKKTNNPQFDEVFYFEVTRPCSYSKKSHFDFEEEDVDKLEIRVDLWNASNLKFGDEFLGELRIPLHVLRYASSYEAWYFLQPRDNGSKSVKPDDLGSLRLNVVYTEDHVFSSEYYSPLRDLLLKSADVEPVSASAAHILGEVCRDKQEAAIPLVRLLLHYGRVVPFISAIASAEVKRTQDPNTIFRGNSLTSKCIDETMKLAGMHYLHVTLKPTIEEICQSHKSCEIDPVKLKDGENLENNMESLRQYVDRIFSVITKSGVSCPTVMCDIFFSLREAAAKRFQDDLDVRYTAVSSFIFLRFFAPAILSPNLFQLTPHHTDPQTSRTLTLISKTIQTLGSLSKSKSASFKESYMATFYEFFNEQKYADAVKNFLDLISSSGRRDPKSIEQPILLKEGFMIKRAQGRKRFGMKNFKKRWFRLTNHEFTYQKSKGDQPLCNIPIENILAVERLEEESFRMKNMFQVIQPERALYIQANNCVEAKDWIDILTKVSQCNQKRLTVFHPSAYLNGHWLCCRASSDTAIGCTPCTGGLPANIQLDIDGDRETERIYSLFNLYMGKLEKMQEACGSKSVYDGPEQEEYSTFIIDDPQETYRTLKQVIAGVGTLEQEHAQYRRNKFKKTRYGSQEHPIGDKSFQNYIRQQSEISTHSI

binding [1]: binds
B2: Slc33a1 (protein, UniProt Q6AYY8 1-550)
chain: MSPTISHKDNSRQRRSGMFGHALDMKSGPLPPGGWDDNHQDSVGGEGDREVLLGDVGPGDFPKAKRSYRAELSSILLLLFLYVLQGIPLGLAGSIPLILQSKNVSYTDQAFFSFVFWPFSLKLLWAPLVDAVYFKNFGRRKSWLVPTQYILGIFMIYLSTQVDRLLGNIDGRTPDVVALTVTFFLFEFLAATQDIAVDGWALTMLSRENVGYASTCNSVGQTAGYFLGNVLFLALESADFCNKYLRFQPQPRGIVTLSDFLFFWGTVFLITTTLVALLKKETREASVVKEETQGITDTYKLLFSIIKMPAVLAFCLLILTSKIGFSAADAVTGLKLVEEGVPKEHLALLAVPMVPLQIILPLLISKYTAGPQPLNIFYKAMPYRLLLGLEYALLVWWTPKVEHQGGFPIYYYIIVLLSYALHQVTLYSMYVSIMAFNAKVSDPLIGGTYMTLLNTVSNLGGNWPSTVALWLVDPLTVKECVGASNQNCRTPEAIELCKKLGGSCVTALDGYYVESIVCVLIGFGWWFFLGPKFKKLQDEGPSSWKCKRTN

binding [2]: binds
B3: prostacyclin synthase (enzyme, UniProt Q62969 1-501)
chain: MSWAALLGLLAVLLLLLLLLSRRRARRPGEPPLDLGSIPWLGHALEFGKDAASFLTRMKEKHGDIFTVLVGGRYVTVLLDPHSYDTVVWDLRTRLDFHPYAIFLMERIFDLQLPNFNPSEEKARMKPTLMHKDLQALTEAMYTNLRTVLLGDSTEGGSGWQEKGLLEFSYSSLLSAGYLTLYGVEASPRTHESQALDRDHSADVFRTFRQLDLMLPKLARGSLSVGDKDHACSVKSRLWKLLSPAGLASRADRSSWLESYLRHLEEMGVSEDMQARALVLQLWATQGNMGPTAFWLLLFLLKNPEALDAVHAELKRIVWQAEKPVLQMTALPQKILDSMPVLDSVLNETLRLTAAPFITREVMADLALPMADRREFSLRRGDRLLLFPFLSPQKDPEIYTEPEVFKYNRFLNPDGSEKKDFYKDGKRLKNYNMPWGAGHNQCLGKSYAINSIKQFVVLLLTHFDLELVSEDTEVPEFDLSRYGFGLMQPEEDVPIRYRTRL

binding [2]: binds
binding [1]: binds
B4: calsequestrin 2 (CASQ2) (protein, UniProt P51868 20-413)
chain: EEGLNFPTYDGKDRVVSLSEKNLKQVLKRYDLLCLYYHEPVSSDKVAQKQFQLKEIVLELVAQVLEHKNIGFVMVDSRKEAKLAKRLGFSEEGSLYVLKGGRTIEFDGEFAADVLVEFLLDLIEDPVEIVNNKLEVQAFERIEDQIKLLGFFKNEDSEYYKAFQEAAEHFQPYIKFFATFDKGVAKKLSLKMNEVGFYEPFMDEPSVIPNKPYTEEELVEFVKEHQRPTLRPLRPEDMFETWEDDLNGIHIVAFAEKSDPDGYEFLEILKQVARDNTDNPDLSILWIDPDDFPLLVAYWEKTFKIDLFKPQIGVVNVTDADSVWMEIPDDDDLPTAEELEDWIEDVLSGKINTEDDDNEDEDDDGDNDNDDDDDDDDNSDEDNDDSDDDDDDDE

binding [1]: binds
B5: aquaporin (AQP1) (protein, UniProt P29975 1-269)
chain: MASEIKKKLFWRAVVAEFLAMTLFVFISIGSALGFNYPLERNQTLVQDNVKVSLAFGLSIATLAQSVGHISGAHLNPAVTLGLLLSCQISILRAVMYIIAQCVGAIVASAILSGITSSLLENSLGRNDLARGVNSGQGLGIEIIGTLQLVLCVLATTDRRRRDLGGSAPLAIGLSVALGHLLAIDYTGCGINPARSFGSAVLTRNFSNHWIFWVGPFIGSALAVLIYDFILAPRSSDFTDRMKVWTSGQVEEYDLDADDINSRVEMKPK

binding [1]: binds
B6: MARCKSL1 (protein, UniProt Q9EPH2 1-199)
chain: MGSQSSKAPRGDVTAEEAAGASPAKANGQENGHVKSNGDLTPKGEGESPPVNGADEAAGATGDAIEPAPPSQEAEAKGEVAPKETPKKKKKFSFKKPFKLSGLSFKRNRKEGGGDSSASSPTEEEQEQGEISACSDEGTAQEGKAAATPESQEPQAKGAEASAVSKGGDAEEEAGPQAAEPSTPSGPESGPASASAENE

binding [1]: binds
B7: Slc12A4 (protein, UniProt Q63632 1-1085)
chain: MPHFTVVPVDGPRRGDYDNLEGLSWVDYGERAEREDSDGQGNHRENSPFLSPLDASRGNDYYDRNLALFEEELDIRPKVSSLLGKLVSYTNLTQGAKEHEEAESGEGGRRRAAKAPSMGTLMGVYLPCLQNIFGVILFLRLTWMVGTAGVLQALLIVLICCCCTLLTAISMSAIATNGVVPAGGSYFMISRSLGPEFGGAVGLCFYLGTTFAAAMYILGAIEILLTYIAPPAAIFYPSGTHDMSSATLNNMRVYGTIFLTFMTLVVFVGVKYVNKFASLFLACVIISILSIYVGGIKSAFDPPVFPVCMLGNRTLSRDQFDICAKTVVVDNETVATRLWTFFCHSPNLTADSCDPYFLLNNVTEIPGIPGAAAGVLQENLWSAYLEKGEVVEKHGLPSTDTLGLKESLSLYVVADIATSFTVLVGIFFPSVTGIMAGSNRSGDLRDAQKSIPVGTILAIVTTSLVYFSSVILFGACIEGVVLRDKYGDGVSRNLVVGTLAWPSPWVIVVGSFFSTCGAGLQSLTGAPRLLQAIAKDNIIPFLRVFGHGKANGEPTWALLLTALIAELGILIASLDMVAPILSMFFLMCYLFVNLACAVQTLLRTPNWRPRFKYYHWALSFLGMSLCLALMFVSSWYYALVAMVIAGMIYKYIEYQGAEKEWGDGIRGLSLSAARYALLRLEEGPPHTKNWRPQLLVLLKLDEDLHVKYPRLLTFASQLKAGKGLTIVGSVIQGSFLESYGEAQAAEQTIKNMMEIEKVKGFCQVVVASKVREGLAHLIQSCGLGGMRHNSVVLGWPYGWRQSEDPRAWKTFIDTVRCTTAAHLALLVPKNIAFYPSNHERYLEGHIDVWWIVHDGGMLMLLPFLLRQHKVWKKCRMRIFTVAQMDDNSIQMKKDLAIFLYHLRLEAEVEVVEMHNSDISAYTYERTLMMEQRSQMLRQMRLTKTERDREAQLVKDRHSALRLESLYSDEEDESVTGADKIQMTWTRDKYMAEPWDPSHAPDNFRELVHIKPDQSNVRRMHTAVKLNEVIVTRSHDARLVLLNMPGPPKNSEGDENYMEFLEVLTEGLERVLLVRGGGREVITIYS

binding [1]: binds
B8: Slc12A7 (protein, UniProt Q5RK27 1-1083)
chain: MPTNFTVVPVEARADGAGDEAAERTEEPGSPESADPACPTPGDGNPRENSPFINNVEVERESYFEGKNMALFEEEMDSNPMVSSLLNKLANYTNLSQGVVEHEEDEDSRRREIKAPRMGTFIGVYLPCLQNILGVILFLRLTWIVGAAGVLESFLIVAMCCTCTMLTAISMSAIATNGVVPAGGSYYMISRSLGPEFGGAVGLCFYLGTTFAGAMYILGTIEIFLTYISPSAAIFQAETADGEAAALLNNMRVYGSCALALMAVVVFVGVKYVNKLALVFLACVVLSILAIYAGVIKTAFAPPDIPVCLLGNRTLANRNFDTCAKMQVVSNGTVTTALWRLFCNGSSLGASCDEYFVQNNVTEIQGIPGVASGVFLDNLWSTYSDKGAFVEKKGVSSVPVSEESRPGGLPYVLTDIMTYFTMLVGIYFPSVTGIMAGSNRSGDLKDAQKSIPTGTILAIVTTSFIYLSCIVLFGACIEGVVLRDKFGEALQGNLVIGMLAWPSPWVIVIGSFFSTCGAGLQSLTGAPRLLQAIARDGIIPFLQVFGHGKANGEPTWALLLTALICETGILIASLDSVAPILSMFFLMCYMFVNLACAVQTLLRTPNWRPRFKFYHWTLSFLGMSLCLALMFICSWYYALFAMLIAGCIYKYIEYRGAEKEWGDGIRGLSLNAARYALLRVEHGPPHTKNWRPQVLVMLNLDSEQCVKHPRLLSFTSQLKAGKGLTIVGSVLEGTYLDKHVEAQRAEENIRSLMSAEKMKGFCQLVVSSNLRDGASHLIQSAGLGGMKHNTVLMAWPEAWKQADNPFSWKNFVDTVRDTTAAHQALLVAKNIDLFPQNQERFSDGNIDVWWIVHDGGMLMLLPFLLRQHKVWRKCRMRIFTVAQVDDNSIQMKKDLQMFLYHLRISAEVEVVEMVENDISAFTYEKTLMMEQRSQMLKQMQLSKNEREREAQLIHDRNTASHTVATARTEAPPTPDKVQMTWTKEKLIAEKHRNKDTGTSGFKDLFSLKPDQSNVRRMHTAVKLNGVVLNKSQDAQLVLLNMPGPPKSRQGDENYMEFLEVLTEGLNRVLLVRGGGREVITIYS

binding [1]: binds
B9: SPARC (protein, UniProt P16975 18-301)
chain: APQTEAAEEMVAEETVVEETGLPVGANPVQVEMGEFEEGAEETVEEVVAENPCQNHHCKHGKVCELDESNTPMCVCQDPTSCPAPIGEFEKVCSNDNKTFDSSCHFFATKCTLEGTKKGHKLHLDYIGPCKYIAPCLDSELTEFPLRMRDWLKNVLVTLYERDEGNNLLTEKQKLRVKKIHENEKRLEAGDHPVELLARDFEKNYNMYIFPVHWQFGQLDQHPIDGYLSHTELAPLRAPLIPMEHCTTRFFETCDLDNDKYIALEEWAGCFGIKEQDINKDLVI

binding [1]: binds
B10: PTPN1 (protein, UniProt P20417 1-432)
chain: MEMEKEFEQIDKAGNWAAIYQDIRHEASDFPCRIAKLPKNKNRNRYRDVSPFDHSRIKLHQEDNDYINASLIKMEEAQRSYILTQGPLPNTCGHFWEMVWEQKSRGVVMLNRIMEKGSLKCAQYWPQKEEKEMVFDDTNLKLTLISEDVKSYYTVRQLELENLATQEAREILHFHYTTWPDFGVPESPASFLNFLFKVRESGSLSPEHGPIVVHCSAGIGRSGTFCLADTCLLLMDKRKDPSSVDIKKVLLEMRRFRMGLIQTADQLRFSYLAVIEGAKFIMGDSSVQDQWKELSHEDLEPPPEHVPPPPRPPKRTLEPHNGKCKELFSNHQWVSEESCEDEDILAREESRAPSIAVHSMSSMSQDTEVRKRMVGGGLQSAQASVPTEEELSPTEEEQKAHRPVHWKPFLVNVCMATALATGAYLCYRVCFH
